Results reported in patent US20250281533A1.
Results are given in words; binding and its absence hold for the method and conditions named. Some entries that bind do so weakly or less than the wild type.

T1: recombinant antigen: human mucin1 conjugated with CD4 (human)
T1 sequence: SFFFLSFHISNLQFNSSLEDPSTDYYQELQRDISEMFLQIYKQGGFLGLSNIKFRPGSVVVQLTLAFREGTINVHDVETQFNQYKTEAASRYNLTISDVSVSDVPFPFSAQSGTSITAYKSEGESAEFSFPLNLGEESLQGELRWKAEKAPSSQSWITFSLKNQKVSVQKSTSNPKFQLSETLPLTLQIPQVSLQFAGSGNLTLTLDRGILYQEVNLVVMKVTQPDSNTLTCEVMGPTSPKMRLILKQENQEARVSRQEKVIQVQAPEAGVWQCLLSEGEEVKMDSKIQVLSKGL

B1: scFv 2447_3A09 (scFv)
scFv: EVQLLESGGGLVQPGRSLRLSCAATGFTFDDYAMHWVRQAPGKGLEWVSGISWNSGSIGYADSVKGRFTISRDNAKNSLYLQMNSLRAEDTASYYCAKDVSSGWYWYAFDIWGQGTLVTVSSGGGGSGGGGSGGGASSYELTQDPAVSVALGQTVRITCQGDSLRSYYASWYQQKPGQAPVLVIYGKNNRPSGIPGRFSGSSSGNTASLTVTGAQAEDEADYYCNSRDSGGSVVFGGGTKLTVL
B2: scFv 2447_3B07 (scFv)
scFv: QVQLVESGGVVVQPGGSLRLSCAASGFTFDDYAMHWVRQAPGRGLEWVSLTSWDGGSTYYADSVKGRFTISRDNSKNSLYLQMNSLRAEDTALYYCAKDHSSGWYNGGMDVWGQGTMVTVSSGGGGSGGGGSGGGASSYELTQDPAVSVALGQTVRITCQGDSLRSYYASWYQQKPGQAPVLVIYGKNNRPSGIPDRFSGSSSGNTASLTITGAQAEDEADYYCNSRDSSGNHVVFGGGTKLTVL
B3: scFv 2447_3H08 (scFv)
scFv: EVQLLESGGGLVQPGRSLRLSCAASGFTFDDYAMHWVRQAPGKGLEWVSGISWNSGSIDYADSVKGRFTISRDNSKNTLYLQMNSLRAEDTAVYYCARDRSSGWYTGSFDYWGQGTLVTVSSGGGGSGGGGSGGGASSYELTQDPAVSVALGQTVRITCQGDSLRSYYASWYRQKPGQAPVLVIYGKNNRPSGIPDRFSGSSSGNTASLTIIGAQAEDEADYYCQSRDSSDNRVLFGGGTKVTVL
B4: scFv 2447_3A12 (scFv)
scFv: EVQLVQSGAEVKKPGASVKVSCKASGYTFTSYGISWVRQAPGQGLEWMGWISAYNGNTNYAQKLRGRVTMTTDTSTSTAYMELRSLRSDDTAVYYCARDPHILTGYYRGGWFDPWGQGTLVTVSSGGGGSGGGGSGGGASSYELTQDPAVSVVLGQTVRITCQGDSLRSYYASWYQQKPGQAPVLVIYGKNNRPSGIPDRFSGSSSGNTASLTITGAQAEDEADYYCNSRDSSGNHRVFGGGTKLTVL
B5: scFv 2447_3A08 (scFv)
scFv: EVQLVQSGAEVKKPGASVKVSCKASGYTFTSYGISWVRQAPGQGLEWMGWISAYNGNTNYAQKLQGRVTMTTDTSTSTAYMELRSLRSDDTAVYYCARDRATIFGVVTPFDYWGQGTLVTVSSGGGGSGGGGSGGGASSYELTQDPAVSVALGQTVRITCQGDSIRSYSASWYQQKPGQAPRLVIYGKNNRPSGIPDRVSGSTSGNTASLTVTGAQAEDEADYYCNSRDSSGNRVVFGGGTQLTVL
B6: scFv 2447_3H02 (scFv)
scFv: EVQLLESGGGLVQPGRSLRLSCAASGFTFDDYAMHWVRQAPGKGLEWVSGISWDSGSIGYADSVKGRFTISRDNAKNSLYLQMNSLRAEDTALYYCAKDVSSGWYWYAFDIWGQGTLVTVSSGGGGSGGGGSGGGASSYELTQDPAVSVALGQTVRITCQGDILRSYYASWYQQKPGQAPVLVIYGKNNRPSGIPDRFSGSSSGNTASLTITGAQAEDEADYYCNSRDSSGNRVVFGGGTKLTVL
B7: scFv 2447_2H08 (scFv)
scFv: EVQLVQSGAEVKKPGASVKVSCKASGYTFTNYGISWVRQAPGQGLEWMGWISAYNGNTNYAQKLQGRVTMTTDTSTSTAYMELRSLRSDDTAVYYCARDPHILTGYYRGGWFDPWGQGTTVTVSSGGGGSGGGGSGGGASSYELTQDPAVSVALGQTVTITCQGDSLRTSYAGWLQQKPGQAPVLVLYGKTSRPSGIPDRFSGSTSGNTASLTITGAQAEDEAEYFCHSRDSNDNYLEVVFGGGTKLTVL
B8: scFv 2447_3C08 (scFv)
scFv: EVQLLESGGGLVQPGGSLRLSCAASGFTFDDYAMHWVRQAPGKGLEWVSGISWNSGSIGYADSVKGRFTISRDNAKNSLYLQMNSLRAEDTALYYCAKDRGSGYEGNYYGMDVWGQGTLVTVSSGGGGSGGGGSGGGASSYELTQDPAVSVALGQTVRITCQGDSLRSYYASWYQQKPGQAPVLVIYGKNNRPSGIPDRFSGTTSGNTASLTITGAQAEDEADYYCNSRDSSGNHYVFGTGTKVTVL

molecular target: T1, recombinant antigen: human mucin1 conjugated with CD4 (human); experiment: screening of scFv libraries against the recombinant mucin1-CD4 antigen

binding, binds:
B1, B2, B3, B4, B5, B6, B7, B8
